Source: publication PMC6788708
No constants are given. Whether binding was seen depends on the method and setting. For some assays here: In cells and extracts the contact can be indirect. Some results given as binding are weak or reduced against the parent protein; the word gives no strength. For some assays here: Sequences can lack the tags named with a protein.

The chains behind the UniProt entries cited, without tags or fusion partners.
UniProt P73407: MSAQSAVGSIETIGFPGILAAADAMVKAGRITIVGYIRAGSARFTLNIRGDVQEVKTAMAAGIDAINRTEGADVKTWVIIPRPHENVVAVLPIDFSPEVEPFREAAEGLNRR

Assays:
[1] = target: His4-CcmK4 (Synechocystis sp. PCC6803 CcmK4, N-ter His4 tag) (Synechocystis sp. PCC6803) (UniProt P73407); assay: pull-down; purified doubly tagged His4/FLAG homo- or hetero-hexamer (2 uM) in 50 mM NaPi pH 8.0, 100 mM NaCl, 0.15 mg/mL BSA, overnight at room temperature without or with untagged K1 or K4 (6 uM); then bound to TALON resin, anti-FLAG western blot; both purified
[2] = target: T1, CcmK3-His4 (Synechocystis sp. PCC6803 CcmK3, C-ter His4 tag) (Synechocystis sp. PCC6803) (UniProt P73406); assay: pull-down; four CcmK with His4, StrepTag, FLAG and HA tags co-expressed in E. coli BL21(DE3) (four-cassette plasmid, IPTG or auto-induction); TALON purification; Coomassie and western blots with streptactin-AP, anti-FLAG, anti-HA
T1 sequence: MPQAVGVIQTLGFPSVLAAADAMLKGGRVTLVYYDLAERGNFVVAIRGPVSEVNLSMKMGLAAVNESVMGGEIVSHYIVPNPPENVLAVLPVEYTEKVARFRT

[3] = target: CcmK4-His4 (Synechocystis sp. PCC6803 CcmK4, C-ter His4 tag) (Synechocystis sp. PCC6803) (UniProt P73407); assay: pull-down; couples of His4- and FLAG-tagged Syn6803 CcmK co-expressed in E. coli BL21(DE3) (two-cassette pET26b plasmid, IPTG); soluble fraction on cobalt TALON resin in 20 mM NaPi, 300 mM NaCl, 10 mM imidazole, pH 8.0, eluted with 300 mM imidazole; Coomassie SDS-PAGE and anti-FLAG western blot of purified fractions
[4] = target: His4-CcmK4 (Synechocystis sp. PCC6803 CcmK4, N-ter His4 tag) (Synechocystis sp. PCC6803) (UniProt P73407); assay: as above

Row | binding [1] | binding [2] | binding [3] | binding [4] | Substance
1 | binds | binds | binds | binds | CcmK4-FLAG (Synechocystis sp. PCC6803 CcmK4, C-ter FLAG tag) (from UniProt P73407 1-112)
2 |  | binds |  |  | FLAG-CcmK4 (Synechocystis sp. PCC6803 CcmK4, N-ter FLAG tag) (from UniProt P73407 1-112)
